Earlier results, collected in patent US20210145764A1, “COMPOSITIONS OF CANNABIDIOL (CBD), AND/OR POLYPHENOLS, AND METHODS FOR THE PREVENTION AND/OR TREATMENT OF SKIN, MUSCLE, NERVE AND INFLAMMATORY DISORDERS, AND BIOLOGICAL FACTORS AND FUNCTIONS IN MAMMALS” (BRIGHAM YOUNG UNIVERSITY, priority 2019, published 2021).
At least one structure is not confirmed: it was looked up by name or label, or the drawing left a doubt.

What was measured:
[1] = cited from earlier work
[2] = cited from earlier work; remark: listed apart in the source

Oc1ccc([C@@H]2COc3cc(O)ccc3C2)cc1 [R-Equol, R-equol]
Binds 5α-DHT [1]: Yes | Strong Antioxidant [2]: Yes, to high levels

Oc1ccc([C@H]2COc3cc(O)ccc3C2)cc1 [S-Equol, S-equol]
Binds 5α-DHT [1]: Yes | Strong Antioxidant [2]: Yes, to moderate
